Laboratory results as given in PubChem BioAssay AID540276 (National Center for Advancing Translational Sciences (NCATS), 2011).
The campaign covered roughly 300,000 compounds. About 5,400 (1.8%) were called active. This list was built around the results that the source calls inconclusive (neither active nor inactive); the mix of calls is not that of the screen. Calls follow the shape of the full dose curve; tested in HEK293 cells. Potencies beside an inconclusive call are fits to weak or partial responses and may not hold up.

Assay: qHTS for inhibitors of binding or entry into cells for Marburg Virus
Details: Marburg virus pseudotyped entry inhibition, cell reporter; activity change, negative = inhibition: at 37.8 µM (top of the series) unless noted
% is scaled to controls: 0 for no effect and ±100 for the full control effect; potency is read from the fitted curve at half-maximal effect.

Structure (SMILES) | Potency | activity change, negative = inhibition
CCCCOc1cccc(C(=O)N(Cc2ccc(Br)o2)C2CCS(=O)(=O)C2)c1 (stereo not drawn) | inconclusive: 2.24 µM [inhibitor, single point] | –
COC(=O)c1ccc(Cc2ccc(C(=O)OC)o2)o1 | – | inactive: 18.7%
Cc1ccc(C)c(NS(=O)(=O)c2ccc(OCC(=O)NCc3ccccn3)cc2)c1 | inconclusive: 35.5 µM [inhibitor, single point] | –
CCCCCc1nnc(NC(=O)c2cccc(S(=O)(=O)N3CCOCC3)c2)s1 | inconclusive: 1.26 µM [inhibitor, single point] | –
CC(C)c1ccc(CN(Cc2ccco2)c2cnc(S(C)(=O)=O)nc2C(=O)Nc2ccccc2)cc1 | inconclusive: 10 µM [inhibitor, partial curve, poor fit] | –
COCCCNCCCCOc1c(Cl)cc(C)cc1Br | inconclusive: 20.6 µM [inhibitor, partial curve, poor fit] | –
Cc1cccc(COCC(Cc2ccccc2)N2CCN(C(=O)c3cc(Cl)cc(Cl)c3)CCC2=O)c1 (stereo not drawn) | inconclusive: 29.1 µM [inhibitor, single point] | –
CCOc1ccc(-c2nc(C#N)c(NC3CC3)o2)cc1 | – | inactive: 27%
CCCC(=O)Nc1ccc2c(c1)C(=O)N(CCC(=O)O)C2=O | – | inactive: -2.06%
O=C(COC(=O)COc1ccccc1)NCc1ccc2c(c1)OCO2 | – | inactive: 12.6%
COc1ccc(N2CCN(C(CNC(=O)C(=O)NC3CC3)c3ccco3)CC2)cc1 (stereo not drawn) | inconclusive: 0.794 µM [inhibitor, single point] | –
Cc1cc2c3c(c1)C1(SCC(=O)N1c1ccc(F)cc1)C(=O)N3C(C)(C)CC2C (stereo not drawn) | inconclusive: 18.3 µM [inhibitor, single point] | –
COCCn1c(SCC(=O)N2CCCc3ccccc32)nc2ccccc2c1=O | inconclusive: 0.651 µM [inhibitor, partial curve, poor fit] | –
Cc1ccccc1CS(=O)(=O)c1cnc2ccccc2n1 | inconclusive: 15.8 µM [inhibitor, single point] | –
COc1ccc(-c2ccc3nnc(SCC(N)=O)n3n2)cc1 | – | inactive: -19.5% [at 46.1 µM]
COC(=O)c1ccc(NC(=O)COC(=O)c2nc3nccc(C)n3n2)cc1 | – | inconclusive: 19.3% [activator] [at 46.1 µM]
Cc1sc(NC(=O)c2ccc(F)cc2)c(CN2CCCCCC2)c1C | inconclusive: 0.291 µM [activator, full curve, poor fit] | –
O=C(NNc1nc(-c2ccccc2)c2cc(Br)ccc2n1)c1ccc(S(=O)(=O)N2CCCCC2)cc1 | inconclusive: 15.8 µM [inhibitor, single point] | –

Nothing new here: two of the compounds above.
Structure (SMILES) | Potency | activity change, negative = inhibition
CCOc1ccc(-c2nc(C#N)c(NC3CC3)o2)cc1 | – | inactive: 27%
CCCC(=O)Nc1ccc2c(c1)C(=O)N(CCC(=O)O)C2=O | – | inactive: -2.06%
